Results are given in words; binding and its absence hold for the method and conditions named. In cells and extracts the contact can be indirect. Some results given as binding are weak or reduced against the parent protein; the word gives no strength.

Amino acid sequences for entries named in this document (tags omitted).
UniProt Q9UNS2: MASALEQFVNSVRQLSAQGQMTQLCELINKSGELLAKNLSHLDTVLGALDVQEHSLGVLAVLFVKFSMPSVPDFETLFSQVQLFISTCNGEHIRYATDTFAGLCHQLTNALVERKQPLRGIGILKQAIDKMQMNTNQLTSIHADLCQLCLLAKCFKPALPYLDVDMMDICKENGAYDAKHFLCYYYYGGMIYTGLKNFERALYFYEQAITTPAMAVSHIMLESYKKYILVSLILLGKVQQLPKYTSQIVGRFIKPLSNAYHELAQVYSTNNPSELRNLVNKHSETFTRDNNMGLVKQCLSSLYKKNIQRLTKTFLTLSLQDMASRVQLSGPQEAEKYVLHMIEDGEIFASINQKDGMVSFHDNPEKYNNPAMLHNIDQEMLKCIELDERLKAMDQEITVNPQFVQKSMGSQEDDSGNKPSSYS

In the assay the target is endogenous Sos1 (human, HeLa cells) (human (endogenous in HeLa)) (UniProt Q07889). Briefly: co-IP; immunoprecipitates with Sos1 antibodies (HeLa lysates) or anti-CSN3 (primary MEF lysates, untreated or tamoxifen-treated to deplete Sos1), Pierce Crosslink Immunoprecipitation Kit; immunoblot with anti-Sos1 or anti-CSN3.

Consider “cellular CSN3 (endogenous, HeLa cells) (from UniProt Q9UNS2 1-423)”, for which the binding entry is recorded as “binds”.

Source of the values: PMC6328564.
